The target of assay [1] is T1, HA-SENP1 (sentrin-specific protease 1, full-length) (UniProt Q9P0U3).
T1 sequence: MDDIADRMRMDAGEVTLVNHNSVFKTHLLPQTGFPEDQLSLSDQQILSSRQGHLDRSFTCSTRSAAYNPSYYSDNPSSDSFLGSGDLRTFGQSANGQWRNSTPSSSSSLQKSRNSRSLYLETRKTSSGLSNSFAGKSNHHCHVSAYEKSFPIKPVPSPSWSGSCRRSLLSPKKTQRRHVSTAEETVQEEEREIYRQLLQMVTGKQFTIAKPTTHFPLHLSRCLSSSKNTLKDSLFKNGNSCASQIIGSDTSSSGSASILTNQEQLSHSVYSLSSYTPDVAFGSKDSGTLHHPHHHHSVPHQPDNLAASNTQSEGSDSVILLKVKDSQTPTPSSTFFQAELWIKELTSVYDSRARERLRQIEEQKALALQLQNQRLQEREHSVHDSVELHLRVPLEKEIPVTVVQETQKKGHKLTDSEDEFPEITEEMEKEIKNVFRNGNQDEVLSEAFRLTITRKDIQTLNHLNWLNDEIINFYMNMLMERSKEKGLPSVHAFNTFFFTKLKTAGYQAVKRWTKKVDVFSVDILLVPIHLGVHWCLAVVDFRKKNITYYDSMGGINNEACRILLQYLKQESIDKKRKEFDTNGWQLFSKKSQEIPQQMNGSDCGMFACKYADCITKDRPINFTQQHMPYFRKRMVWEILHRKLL
The assay is described as follows: co-IP; HEK-293T cells co-transfected with Flag-DAPK1 (or its mutants) and HA-SENP1 (or its truncated mutants); antibodies with cell lysates 3-6 h, protein A/G agarose 2-3 h at 4 °C, washed with NP-40 lysis buffer; immunoblot. (In general: A western blot detects proteins with antibodies after separation by electrophoresis.)

Assay [2] has as its target T2, GST-SENP1 (UniProt Q9P0U3).
T2 sequence: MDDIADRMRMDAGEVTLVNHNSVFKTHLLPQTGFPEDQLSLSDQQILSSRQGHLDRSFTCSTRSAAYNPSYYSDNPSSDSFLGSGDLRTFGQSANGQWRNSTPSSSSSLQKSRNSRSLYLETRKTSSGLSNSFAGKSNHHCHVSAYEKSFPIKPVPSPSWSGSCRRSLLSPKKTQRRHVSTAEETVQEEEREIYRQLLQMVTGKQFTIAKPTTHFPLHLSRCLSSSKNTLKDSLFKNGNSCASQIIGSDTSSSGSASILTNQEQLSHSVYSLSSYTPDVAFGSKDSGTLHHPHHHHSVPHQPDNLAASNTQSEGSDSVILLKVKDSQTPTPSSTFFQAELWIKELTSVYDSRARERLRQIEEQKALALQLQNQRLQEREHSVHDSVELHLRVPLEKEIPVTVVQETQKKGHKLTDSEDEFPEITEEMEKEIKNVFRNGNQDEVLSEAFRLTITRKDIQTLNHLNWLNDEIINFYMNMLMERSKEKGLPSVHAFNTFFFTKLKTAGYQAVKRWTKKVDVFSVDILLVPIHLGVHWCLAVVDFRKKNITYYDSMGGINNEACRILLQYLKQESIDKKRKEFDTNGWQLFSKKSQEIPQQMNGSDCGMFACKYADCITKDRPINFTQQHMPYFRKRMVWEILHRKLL
The assay is described as follows: pull-down; supernatants of transfected HEK-293T cells incubated with purified GST fusion proteins from E. coli about 2 h at 4 °C, then glutathione-agarose beads 2 h at 4 °C; washed with lysis buffer; immunoblot (anti-Myc or anti-Flag); only the target purified.

For assay [3], the target named is T2, GST-SENP1. The assay is described as follows: pull-down; purified His-DAPK1 (848–1288 aa) incubated with GST or GST-SENP1 proteins; immunoblot with an anti-His antibody; both purified.

Results are given in words; binding and its absence hold for the method and conditions named. For part of these data: Binding seen in cells or lysates may run through a third protein. Some entries that bind do so weakly or less than the wild type. Tags and fused reporters may be left off the sequences shown.

B1: Flag-DAPK1 (848–1288 aa) (domain or fragment, UniProt P53355 848-1288)
chain: IQLNQVIFWLSFLKSLVPVEEPIAFGGKLKNPLQVVLVATHADIMNVPRPAGGEFGYDKDTSLLKEIRNRFGNDLHISNKLFVLDAGASGSKDMKVLRNHLQEIRSQIVSVCPPMTHLCEKIISTLPSWRKLNGPNQLMSLQQFVYDVQDQLNPLASEEDLRRIAQQLHSTGEINIMQSETVQDVLLLDPRWLCTNVLGKLLSVETPRALHHYRGRYTVEDIQRLVPDSDVEELLQILDAMDICARDLSSGTMVDVPALIKTDNLHRSWADEEDEVMVYGGVRIVPVEHLTPFPCGIFHKVQVNLCRWIHQQSTEGDADIRLWVNGCKLANRGAELLVLLVNHGQGIEVQVRGLETEKIKCCLLLDSVCSTIENVMATTLPGLLTVKHYLSPQQLREHHEPVMIYQPRDFFRAQTLKETSLTNTMGGYKESFSSIMCFGCH
In the case of B1, the binding result in assay [1] and in assay [2] was “binds” in each case.

B2: His-DAPK1 (848–1288 aa) (domain or fragment, UniProt P53355 848-1288)
chain: IQLNQVIFWLSFLKSLVPVEEPIAFGGKLKNPLQVVLVATHADIMNVPRPAGGEFGYDKDTSLLKEIRNRFGNDLHISNKLFVLDAGASGSKDMKVLRNHLQEIRSQIVSVCPPMTHLCEKIISTLPSWRKLNGPNQLMSLQQFVYDVQDQLNPLASEEDLRRIAQQLHSTGEINIMQSETVQDVLLLDPRWLCTNVLGKLLSVETPRALHHYRGRYTVEDIQRLVPDSDVEELLQILDAMDICARDLSSGTMVDVPALIKTDNLHRSWADEEDEVMVYGGVRIVPVEHLTPFPCGIFHKVQVNLCRWIHQQSTEGDADIRLWVNGCKLANRGAELLVLLVNHGQGIEVQVRGLETEKIKCCLLLDSVCSTIENVMATTLPGLLTVKHYLSPQQLREHHEPVMIYQPRDFFRAQTLKETSLTNTMGGYKESFSSIMCFGCH
Regarding B2, the binding result in assay [3] is listed as “binds”.

Source of the values: PMC12639696.
